In paper PMC7671503:
No constants are given. Whether binding was seen depends on the method and setting. Binding seen in cells or lysates may run through a third protein. Some entries that bind do so weakly or less than the wild type. Sequences can lack the tags named with a protein. Blank lines part the entries; values can stand above or below the binder they belong to.

Molecular target: Myc-tagged Sth1, the core catalytic subunit of the CaRSC complex (C. albicans)
Assay: co-IP; lysates of C. albicans cells expressing Sth1-Myc and HA-tagged partner; Sth1-Myc precipitated with polyclonal anti-Myc (ab9106); blot with anti-Myc 9E10 and anti-HA 3F10

binding: binds
B1: C1_01800p-HA (HA-tagged Nri2) (protein, UniProt Q59T87 1-239)
chain: MVKNTSYKKQKLSSRNRIINQEVPLFPPTKYEKSKATLKHFPSSIVNGVTAEGGLYSLTFKSINCASFVENNELMKTVFKVPKLELSKVTDNDDVDKLKNWKQTLENDINELKKSDSNVANTNIVSDLQNELQTDLENNGNNLATFGEKLADSFVVNINISDGNYKVIQDVIIPGLQVDTFEDVTNPDLSEYEKITLSDTQNEEKEETGNKQETEVGQEVESEQKDENKTEQTSQPTST

binding: binds
B2: C2_01370p-HA (HA-tagged Nri1) (protein, UniProt Q5ALY5 1-618)
chain: MDVRRCRRCKRKRLDDEPDEVRQYKTCAKCRIIERNKKNSRKPLAEETMLYGLKQFREQQSAENYIEEEGLLKDEFFKRYHNKPFNYQEEITKVLNNPNYVPPVLHNHNTDEVVTSSNGNTTGPKYQMTMKTNNTTGVQPPIKSRKQQQQPQPQQQQQQTQQHRHQQHQHQQQTHHHNQLHHQQETVIVDDEEDLYKILSELGNDDNSAKNDSKIIKENLDPYANDNVYDDFQKYLTTILEKLHSDKDIKNLVYLKEFNEVFTTNMSKFDAYTKDRTTLYQSIRLSEKQFRSHLLSNIRAMYIDPIIACLGLLYKQEYTNINEFKSTTSIKCGFSYIAKSAEQDEIKNLKESSIILVYNKKYHLLVIKLNHTSYRPSEIIYPNEFKQKVASVFGLLQMEEYSPESTAIFQNINLDYNAITGGLVYDKLVSVSHTYSEELQKFLKGLDKDVFIADFVNYEKVFKLDEENGVNDDDDDMDVDEEKPENKEEEQPQQQEQEGDVDVKMDVEEDGDHELENDVSQANKNDNESESVGQTEEEEEEEEEEEIQVEEAHVPSDELELALGESLAIENDNESENEINQTTTTFVSNENKEDDNNNDDILTKKESTVEVLDPVFQF
